Experimental data reported in publication PMC11654669.
Results are given in words; binding and its absence hold for the method and conditions named.

Target: Plasmodium falciparum Niemann-Pick type C1-related protein (PfNCR1) transporter (P. falciparum) (UniProt Q8I266)
Test: cryo-EM structure; single-particle cryo-EM of purified PfNCR1 in GDN detergent micelles, 7 mg/ml; 20 mM tris-HCl (pH 7.5), 100 mM NaCl, 0.005% GDN; both purified

B1: Plasmodium falciparum Niemann-Pick type C1-related protein (PfNCR1) transporter (protein, UniProt Q8I266 1-1470)
chain: MFVKNFIHKLKELKQKSLDKFANLLYDYGGYVYDRPCTFIICSLICCLLLTCGFYFKEHEKDIYKLYSISNSYAYETNETINDFFYKSRRCFILVESNVNLLKPKILRELQKFEEGTKDIEVDLSEINECKTNSELPPEQSHVAKELYKTLIQRSEENLKSGKINGSLFDYSDLDENGKSVLSLAGKENNDDTLIEGDNKNDEETSANNNNNEDDNNEDDNNEDDNNEDDNNENDNNNNNEDDNNNDDDDDEDNEEEDEEKQKSLREKLYRKIYEMLKKKKENIVLDENNPNVNFTDYKDDVFYPYQYIPPMLIKADRCKLQNVFGDKNLNIDLREASDGLKKQITYTLEDICEKKYGDCNFSSLFLYYEKGNGYIDYPIKVDNLDFYVNRRTYKEMMFKGILGNMVYEKSGSKYIIKSANAIMTVIPLLNSHTYEPYALAYEKKLIDYVRFYNLDDIIQDEETNDDNDPFIRFHVFTDRSLEDEVDRISKIDNLTRLLLLIGVLLIFMYALFNNVTSVLYRSKPLCAVMGIFCGFLGFLSGSGFLYFLGVKSVPPAETVPFLVIGVGVDDVFVILNSYSLLFMVKDNKKRIQMCLKDSALAITVTTLTNIIAFLISAISPFYSICAFSLFTASSLFFGYLMVLTFLLSFLCIEAKLEKKKRNIFTGTFHLFRSIFMKSSKKNKKENKENNIHDDGDNDNDEKKKDLSLEVKNNEDDYENISIYEWIHNLYLFEESINKKKKNAALVYASNNGMSSNLNNVNEDGFPNPSKIVSMEDVKKRNIKKDDAYINKEDEEGGGYYNKDDNKKKDILGKKQKKNNNNVTLVSKKGEDNELDVYYENLDEKTNDKYKMNNIKSSKLKYDNDKKDGAIINNRPSSDEEYKEEKDKNKINILNDVFNDITIKPNENILLDRGDVIKSSGYDSSYNDLQSSSLPNPSSNEVLNKTTMVYNETDLKDNKKEIKSSKKNVKDIKKSDMIHDDTYDIINSNNKNILLSSNEINNNSNNTNKFNNNSTELATKDTQQFINGHDKNIYLLSSHDNALFYKYIYEEPKGNIGKYFRSLVKNYYVPFLSSRFGKTIVYIMFTIIIAMSIYGCTLMKKGIKYDKAFPVDSYVRRFTTAKIKYFPDFGDFIEVYYFDKHFINKYRGLEKNTKEAASSFLYSDLTDRQIMNSPKINKNVHWENTNLQEELINMHNTLESQEFVTSVANGFTFFLNKNKSSLRKENPQEFYEIFANWLKKDFVGNLFKNDFVFLNGKLVAWRFHYFQKNVDDSEISSKWLKACKQITKLENHNVQMVCFHLSSIFNETDESIIEVTLINLGITILTILVVTAYIIKGFYSCVIIALIIFLIDLCIFGFMCLCGITMNIISMVILVLSVGFSIDHTSHIVQAFSHSMGRTRDEKMKESLHLMIGPVLHSGLSTWFVISTLFFSNKDFTVIFFQTLSLVLFFSITFSSMFLPVLLSSFGPLH
modifications: N-acetylglucosamine on N165 and N294
With B1 the binding was “no binding”.
